Experimental data taken from the supplement of paper PMC10849652.
Some of the results follow.

The chains behind the UniProt entries cited, without tags or fusion partners. Where a name states a change or a piece, a line headed by the entry shows the natural chain unless it says otherwise.
UniProt Q96P16: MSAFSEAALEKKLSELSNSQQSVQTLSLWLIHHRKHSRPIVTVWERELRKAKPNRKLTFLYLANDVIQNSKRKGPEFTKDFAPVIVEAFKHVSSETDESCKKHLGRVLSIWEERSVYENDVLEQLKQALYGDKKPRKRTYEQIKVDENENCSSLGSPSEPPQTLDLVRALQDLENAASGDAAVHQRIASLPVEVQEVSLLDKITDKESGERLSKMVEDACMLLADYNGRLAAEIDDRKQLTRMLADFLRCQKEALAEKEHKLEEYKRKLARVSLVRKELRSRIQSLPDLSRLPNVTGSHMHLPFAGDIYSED
UniProt Q9NYV6: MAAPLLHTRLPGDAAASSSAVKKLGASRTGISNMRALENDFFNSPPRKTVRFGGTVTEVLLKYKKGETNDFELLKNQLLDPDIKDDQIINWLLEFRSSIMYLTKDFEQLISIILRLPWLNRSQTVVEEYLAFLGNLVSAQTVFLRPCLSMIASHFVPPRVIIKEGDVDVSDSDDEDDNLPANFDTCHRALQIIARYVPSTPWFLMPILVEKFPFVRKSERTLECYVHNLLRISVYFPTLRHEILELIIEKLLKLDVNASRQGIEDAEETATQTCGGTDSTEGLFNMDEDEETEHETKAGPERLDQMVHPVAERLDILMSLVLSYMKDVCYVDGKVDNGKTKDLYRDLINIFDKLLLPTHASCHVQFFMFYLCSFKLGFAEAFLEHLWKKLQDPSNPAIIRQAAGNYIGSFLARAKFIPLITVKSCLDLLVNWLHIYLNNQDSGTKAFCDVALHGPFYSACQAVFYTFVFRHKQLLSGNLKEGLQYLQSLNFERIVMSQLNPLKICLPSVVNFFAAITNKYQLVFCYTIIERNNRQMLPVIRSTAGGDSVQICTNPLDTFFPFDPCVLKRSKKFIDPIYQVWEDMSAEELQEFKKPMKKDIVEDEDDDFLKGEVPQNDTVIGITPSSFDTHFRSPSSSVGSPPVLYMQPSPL
UniProt P78317: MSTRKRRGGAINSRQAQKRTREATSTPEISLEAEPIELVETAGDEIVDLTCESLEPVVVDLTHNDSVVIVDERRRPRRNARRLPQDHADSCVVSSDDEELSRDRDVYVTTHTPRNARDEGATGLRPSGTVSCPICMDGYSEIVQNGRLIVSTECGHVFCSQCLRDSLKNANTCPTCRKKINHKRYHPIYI
UniProt Q9H4P4: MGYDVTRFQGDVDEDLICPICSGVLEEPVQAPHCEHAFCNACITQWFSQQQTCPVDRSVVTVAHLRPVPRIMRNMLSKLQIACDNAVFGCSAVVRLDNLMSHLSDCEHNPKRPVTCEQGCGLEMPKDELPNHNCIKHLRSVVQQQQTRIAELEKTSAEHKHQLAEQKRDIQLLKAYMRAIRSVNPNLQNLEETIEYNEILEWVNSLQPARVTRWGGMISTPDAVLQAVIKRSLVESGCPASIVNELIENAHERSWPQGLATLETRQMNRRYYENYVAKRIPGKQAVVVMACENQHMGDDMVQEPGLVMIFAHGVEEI
UniProt Q9H7B2: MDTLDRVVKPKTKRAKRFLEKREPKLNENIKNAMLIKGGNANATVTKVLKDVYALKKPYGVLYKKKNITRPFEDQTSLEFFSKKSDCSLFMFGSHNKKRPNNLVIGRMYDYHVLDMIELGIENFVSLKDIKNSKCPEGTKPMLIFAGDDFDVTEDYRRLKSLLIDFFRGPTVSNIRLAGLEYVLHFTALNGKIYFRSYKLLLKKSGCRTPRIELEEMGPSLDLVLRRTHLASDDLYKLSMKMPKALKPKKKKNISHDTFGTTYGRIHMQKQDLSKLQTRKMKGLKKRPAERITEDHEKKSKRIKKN
UniProt Q96CM3: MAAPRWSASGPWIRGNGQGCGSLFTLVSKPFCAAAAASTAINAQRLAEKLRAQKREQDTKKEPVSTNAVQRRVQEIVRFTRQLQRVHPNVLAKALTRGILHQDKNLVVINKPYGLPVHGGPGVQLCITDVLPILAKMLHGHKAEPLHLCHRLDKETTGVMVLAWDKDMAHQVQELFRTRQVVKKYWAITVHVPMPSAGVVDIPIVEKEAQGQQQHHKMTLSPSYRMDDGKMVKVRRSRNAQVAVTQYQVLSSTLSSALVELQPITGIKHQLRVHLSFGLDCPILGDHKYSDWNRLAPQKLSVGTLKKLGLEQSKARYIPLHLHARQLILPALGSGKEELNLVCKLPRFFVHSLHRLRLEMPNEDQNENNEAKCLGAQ

Experiments:
Assay in all cases: log2 fold change, soluble protein after heating vs DMSO (PISA); higher = thermal stabilisation; K562 cells, 10 uM, 30 min; active = over 0.2 and 3.5 SD of the protein, either way, in both replicates (recomputed)
[1] = compound: NC(=O)c1cnc(N[C@@H]2CCCC[C@@H]2N)nc1Nc1cccc(-n2nccn2)c1
Procedure, shortened: (§1)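 Values are thermal stability changes relative to control samples and are taken from duplicates. They are stated as log2 fold changes. Before quantification by TMTpro 16plex LC-MS/MS with equalised channel sums, K562 cells at 2×10^6 cells/mL were treated with 10 μM compound for 30 min, heated in aliquots for 3 min across 48°C-58°C, pooled, extracted in PBS with 0.5% NP-40 at 4°C, and centrifuged at 21,000xg for 90 min to give the soluble supernatant.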

[2] = compound: NC1(c2ccc(-c3nc4ccn5c(=O)[nH]nc5c4cc3-c3ccccc3)cc2)CCC1
Procedure, shortened: as §1

silmitasertib = compound: O=C(O)c1ccc2c(c1)nc(Nc1cccc(Cl)c1)c1ccncc12 [silmitasertib]
Procedure, shortened: as §1

[3] = compound: NC(=O)Nc1cc(-c2cccc(F)c2)sc1C(=O)N[C@H]1CCCNC1
Procedure, shortened: as §1

[4] = compound: NCC(=O)Nc1ccc(-n2nc(C(F)(F)F)cc2-c2ccc3c(ccc4ccccc43)c2)cc1
Procedure, shortened: as §1

entinostat = compound: Nc1ccccc1NC(=O)c1ccc(CNC(=O)OCc2cccnc2)cc1 [entinostat]
Procedure, shortened: as §1

vorinostat = compound: O=C(CCCCCCC(=O)Nc1ccccc1)NO [vorinostat]
Procedure, shortened: as §1

[5] = compound: O=C1NC(=O)C(c2cnc3ccccn23)=C1c1cn2c3c(cc(F)cc13)CN(C(=O)N1CCCCC1)CC2
Procedure, shortened: as §1

citarinostat = compound: O=C(CCCCCCNC(=O)c1cnc(N(c2ccccc2)c2ccccc2Cl)nc1)NO [citarinostat]
Procedure, shortened: as §1

[6] = compound: c1cc(OCCN2CCCCC2)cc(-c2n[nH]c3ccc(-c4nnc[nH]4)cc23)c1
Procedure, shortened: as §1

Measured: log2 fold change

RPS19 (UniProt M0R2L9)
inactive: [1] -0.159 | [2] 0.453 | silmitasertib -0.634

RPRD1A (UniProt Q96P16)
inactive: [3] 0.098 | [1] 0.084 | [4] 0.002 | entinostat 0.258 | vorinostat 0.105 | [5] -0.013

RRN3 (UniProt Q9NYV6)
inactive: vorinostat 0.043 | citarinostat 0.012 | [5] -0.216 | [6] -0.457

RPL7L1 (UniProt Q6DKI1)
inactive: [4] 0.075 | vorinostat 0.185 | citarinostat -0.138 | [5] 0.165 | [6] -0.013

RNF4 (UniProt P78317)
inactive: [3] -0.208 | [1] 0.079 | [2] -0.157 | entinostat -0.018 | silmitasertib -0.069 | [5] 0.055

RPS3A (UniProt D6R9B6)
inactive: [3] -0.41 | [1] -0.391 | entinostat -0.234

RNF41 (UniProt Q9H4P4)
inactive: [1] 0.082 | citarinostat 0.044 | [6] -0.018

RPF2 (UniProt Q9H7B2)
inactive: vorinostat 0.155

RPUSD4 (UniProt Q96CM3)
inactive: [3] 0.062 | [1] 0.073 | [2] -0.06 | entinostat 0.046 | vorinostat -0.058 | silmitasertib -0.028 | [5] 0.132
